Test results: article PMC4575209
No constants are given. Whether binding was seen depends on the method and setting. In cells and extracts the contact can be indirect. Some binding calls cover weakened binding; strength is not graded here.

Chains of the proteins cited; added tags and fusions are not shown. Residues count along the entry.
UniProt Q02388, residues 17-2944: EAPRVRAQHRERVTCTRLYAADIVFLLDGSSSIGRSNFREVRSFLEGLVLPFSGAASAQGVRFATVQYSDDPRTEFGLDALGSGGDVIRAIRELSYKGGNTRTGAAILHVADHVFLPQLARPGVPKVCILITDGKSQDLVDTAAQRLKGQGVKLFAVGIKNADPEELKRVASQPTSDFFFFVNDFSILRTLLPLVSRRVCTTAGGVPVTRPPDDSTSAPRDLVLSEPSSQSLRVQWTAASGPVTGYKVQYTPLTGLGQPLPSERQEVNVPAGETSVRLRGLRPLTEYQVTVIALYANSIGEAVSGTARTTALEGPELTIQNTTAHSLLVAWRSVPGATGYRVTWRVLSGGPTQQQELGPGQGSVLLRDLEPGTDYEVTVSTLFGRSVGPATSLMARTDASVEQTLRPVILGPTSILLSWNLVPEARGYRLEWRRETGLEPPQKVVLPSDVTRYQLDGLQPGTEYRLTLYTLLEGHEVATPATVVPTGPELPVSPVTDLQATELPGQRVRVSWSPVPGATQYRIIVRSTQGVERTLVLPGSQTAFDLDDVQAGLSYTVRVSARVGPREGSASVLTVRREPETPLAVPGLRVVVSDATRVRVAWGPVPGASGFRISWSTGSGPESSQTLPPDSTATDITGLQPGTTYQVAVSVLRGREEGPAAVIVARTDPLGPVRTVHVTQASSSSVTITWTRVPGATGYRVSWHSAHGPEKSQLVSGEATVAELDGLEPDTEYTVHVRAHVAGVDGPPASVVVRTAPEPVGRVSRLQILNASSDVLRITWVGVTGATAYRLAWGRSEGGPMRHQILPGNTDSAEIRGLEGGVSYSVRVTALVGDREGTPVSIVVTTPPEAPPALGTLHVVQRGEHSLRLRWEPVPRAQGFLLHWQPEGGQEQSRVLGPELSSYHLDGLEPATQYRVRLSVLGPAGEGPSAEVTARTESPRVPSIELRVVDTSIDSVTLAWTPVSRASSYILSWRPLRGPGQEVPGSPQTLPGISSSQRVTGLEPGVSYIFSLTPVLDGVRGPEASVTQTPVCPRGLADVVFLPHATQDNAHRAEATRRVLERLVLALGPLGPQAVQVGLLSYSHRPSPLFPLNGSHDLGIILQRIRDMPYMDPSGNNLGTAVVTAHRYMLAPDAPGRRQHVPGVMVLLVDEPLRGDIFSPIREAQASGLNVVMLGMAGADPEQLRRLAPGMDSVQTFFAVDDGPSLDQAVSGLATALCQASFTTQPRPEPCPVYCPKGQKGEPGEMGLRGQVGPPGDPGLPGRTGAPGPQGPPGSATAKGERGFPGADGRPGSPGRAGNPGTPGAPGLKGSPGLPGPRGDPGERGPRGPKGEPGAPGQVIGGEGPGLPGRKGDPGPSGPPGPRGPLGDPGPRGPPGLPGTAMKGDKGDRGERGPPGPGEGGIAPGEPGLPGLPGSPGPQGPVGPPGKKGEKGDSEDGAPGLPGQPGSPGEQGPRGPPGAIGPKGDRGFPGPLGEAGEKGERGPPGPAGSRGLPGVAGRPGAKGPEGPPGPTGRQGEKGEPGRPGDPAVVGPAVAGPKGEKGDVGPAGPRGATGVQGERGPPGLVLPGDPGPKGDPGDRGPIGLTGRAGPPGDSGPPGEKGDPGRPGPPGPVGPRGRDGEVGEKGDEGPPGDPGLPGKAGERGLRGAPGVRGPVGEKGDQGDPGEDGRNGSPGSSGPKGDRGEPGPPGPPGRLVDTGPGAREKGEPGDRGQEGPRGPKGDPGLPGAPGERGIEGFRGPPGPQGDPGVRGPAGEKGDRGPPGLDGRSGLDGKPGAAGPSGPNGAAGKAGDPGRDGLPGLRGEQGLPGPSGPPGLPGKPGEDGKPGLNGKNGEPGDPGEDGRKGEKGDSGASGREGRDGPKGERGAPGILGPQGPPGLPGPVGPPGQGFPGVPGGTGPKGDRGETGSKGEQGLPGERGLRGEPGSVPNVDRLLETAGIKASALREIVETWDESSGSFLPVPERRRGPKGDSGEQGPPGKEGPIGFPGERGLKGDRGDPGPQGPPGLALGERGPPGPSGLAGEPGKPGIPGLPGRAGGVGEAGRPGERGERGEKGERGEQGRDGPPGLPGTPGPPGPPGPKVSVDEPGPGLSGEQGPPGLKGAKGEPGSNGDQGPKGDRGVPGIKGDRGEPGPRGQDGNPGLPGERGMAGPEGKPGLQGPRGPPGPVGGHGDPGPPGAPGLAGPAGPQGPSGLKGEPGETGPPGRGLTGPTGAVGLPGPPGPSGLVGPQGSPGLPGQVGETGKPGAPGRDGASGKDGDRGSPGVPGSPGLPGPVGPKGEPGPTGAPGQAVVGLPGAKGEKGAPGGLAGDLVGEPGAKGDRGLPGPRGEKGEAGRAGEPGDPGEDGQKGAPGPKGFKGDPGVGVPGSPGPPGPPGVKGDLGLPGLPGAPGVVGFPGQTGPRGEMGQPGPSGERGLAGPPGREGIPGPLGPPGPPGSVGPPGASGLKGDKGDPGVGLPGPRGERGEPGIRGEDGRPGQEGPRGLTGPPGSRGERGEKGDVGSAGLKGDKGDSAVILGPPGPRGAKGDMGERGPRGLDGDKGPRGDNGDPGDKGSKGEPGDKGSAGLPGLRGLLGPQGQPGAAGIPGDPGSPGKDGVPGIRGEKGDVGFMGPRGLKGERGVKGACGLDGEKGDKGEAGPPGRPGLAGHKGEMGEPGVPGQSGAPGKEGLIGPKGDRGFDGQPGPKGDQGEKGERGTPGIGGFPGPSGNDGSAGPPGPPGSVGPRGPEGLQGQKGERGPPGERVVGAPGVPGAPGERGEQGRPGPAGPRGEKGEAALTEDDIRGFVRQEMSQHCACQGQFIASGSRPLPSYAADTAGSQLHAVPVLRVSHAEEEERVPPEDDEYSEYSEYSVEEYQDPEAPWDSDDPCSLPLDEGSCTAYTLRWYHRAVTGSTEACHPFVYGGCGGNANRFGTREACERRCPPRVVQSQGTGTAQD
UniProt O60568, residues 25-738: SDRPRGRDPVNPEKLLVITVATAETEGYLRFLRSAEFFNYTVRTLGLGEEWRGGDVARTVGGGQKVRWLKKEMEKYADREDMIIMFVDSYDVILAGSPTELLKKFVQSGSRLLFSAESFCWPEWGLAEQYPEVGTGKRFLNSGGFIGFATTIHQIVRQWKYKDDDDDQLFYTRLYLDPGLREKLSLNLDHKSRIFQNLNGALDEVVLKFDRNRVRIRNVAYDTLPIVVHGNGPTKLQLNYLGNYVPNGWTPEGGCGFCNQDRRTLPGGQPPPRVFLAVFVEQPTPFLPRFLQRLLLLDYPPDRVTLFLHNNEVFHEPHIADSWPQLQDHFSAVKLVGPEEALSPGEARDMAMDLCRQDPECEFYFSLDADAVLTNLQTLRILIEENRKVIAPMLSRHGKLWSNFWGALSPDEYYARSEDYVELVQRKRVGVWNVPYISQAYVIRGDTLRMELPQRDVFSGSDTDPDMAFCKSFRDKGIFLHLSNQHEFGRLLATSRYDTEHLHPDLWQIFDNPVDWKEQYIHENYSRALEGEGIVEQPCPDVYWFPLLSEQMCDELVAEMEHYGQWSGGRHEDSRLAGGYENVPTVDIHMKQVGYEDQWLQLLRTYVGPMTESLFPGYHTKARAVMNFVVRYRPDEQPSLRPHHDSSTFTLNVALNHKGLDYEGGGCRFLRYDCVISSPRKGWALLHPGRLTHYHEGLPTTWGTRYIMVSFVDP

Assays:
[1] = target: type VII collagen, endogenous in normal human skin (human (endogenous in normal skin)) (UniProt Q02388); assay: proximity ligation; Duolink in situ PLA on frozen sections of human skin; rabbit polyclonal LH3 antibody (1:10) with mouse LH7.2 to type VII collagen (1:800) or with an antibody to the laminin 332 γ2 chain, overnight at 4°C
[2] = target: type VII collagen, retrovirally expressed from COL7A1 in RDEB keratinocytes (human) (UniProt Q02388); assay: co-IP; whole cell lysate (200 μg) of RDEB keratinocytes retrovirally expressing COL7A1; rabbit polyclonal serum to type VII collagen, 2 hours at 4°C, protein G magnetic beads, 5 washes (Universal Magnetic Co-IP kit); blot with mouse monoclonal LH3 antibody; controls: normal rabbit IgG, beads alone, COL7A1 null extract

- binding [1]: binds
- binding [2]: binds
Substance: lysyl hydroxylase 3 (from UniProt O60568 25-738) (enzyme)
